According to the supplement of paper PMC12823440, “Inhibitors supercharge kinase turnover through native proteolytic circuits” (Nature, 2025):
Where a name gives a salt, the structure may show the parent alone. The list shows a part of the results. The calls rarely recur for the same compound in another form.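 In K562 cells expressing nanoluciferase-fused kinases, luminescence was recorded at 4 h intervals between 2 and 18 h, normalized as percent of control with DMSO at 100% and a positive control at 0%. A significant (2 sigma) signal drop marks a time point as decreased. The authors' rule for a hit is not shown and takes in more than the number of time points.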

Amino acid sequences for entries named in this document (tags omitted). A change or cut given only in a name is not applied to a line headed by its entry.
UniProt Q8IWU2: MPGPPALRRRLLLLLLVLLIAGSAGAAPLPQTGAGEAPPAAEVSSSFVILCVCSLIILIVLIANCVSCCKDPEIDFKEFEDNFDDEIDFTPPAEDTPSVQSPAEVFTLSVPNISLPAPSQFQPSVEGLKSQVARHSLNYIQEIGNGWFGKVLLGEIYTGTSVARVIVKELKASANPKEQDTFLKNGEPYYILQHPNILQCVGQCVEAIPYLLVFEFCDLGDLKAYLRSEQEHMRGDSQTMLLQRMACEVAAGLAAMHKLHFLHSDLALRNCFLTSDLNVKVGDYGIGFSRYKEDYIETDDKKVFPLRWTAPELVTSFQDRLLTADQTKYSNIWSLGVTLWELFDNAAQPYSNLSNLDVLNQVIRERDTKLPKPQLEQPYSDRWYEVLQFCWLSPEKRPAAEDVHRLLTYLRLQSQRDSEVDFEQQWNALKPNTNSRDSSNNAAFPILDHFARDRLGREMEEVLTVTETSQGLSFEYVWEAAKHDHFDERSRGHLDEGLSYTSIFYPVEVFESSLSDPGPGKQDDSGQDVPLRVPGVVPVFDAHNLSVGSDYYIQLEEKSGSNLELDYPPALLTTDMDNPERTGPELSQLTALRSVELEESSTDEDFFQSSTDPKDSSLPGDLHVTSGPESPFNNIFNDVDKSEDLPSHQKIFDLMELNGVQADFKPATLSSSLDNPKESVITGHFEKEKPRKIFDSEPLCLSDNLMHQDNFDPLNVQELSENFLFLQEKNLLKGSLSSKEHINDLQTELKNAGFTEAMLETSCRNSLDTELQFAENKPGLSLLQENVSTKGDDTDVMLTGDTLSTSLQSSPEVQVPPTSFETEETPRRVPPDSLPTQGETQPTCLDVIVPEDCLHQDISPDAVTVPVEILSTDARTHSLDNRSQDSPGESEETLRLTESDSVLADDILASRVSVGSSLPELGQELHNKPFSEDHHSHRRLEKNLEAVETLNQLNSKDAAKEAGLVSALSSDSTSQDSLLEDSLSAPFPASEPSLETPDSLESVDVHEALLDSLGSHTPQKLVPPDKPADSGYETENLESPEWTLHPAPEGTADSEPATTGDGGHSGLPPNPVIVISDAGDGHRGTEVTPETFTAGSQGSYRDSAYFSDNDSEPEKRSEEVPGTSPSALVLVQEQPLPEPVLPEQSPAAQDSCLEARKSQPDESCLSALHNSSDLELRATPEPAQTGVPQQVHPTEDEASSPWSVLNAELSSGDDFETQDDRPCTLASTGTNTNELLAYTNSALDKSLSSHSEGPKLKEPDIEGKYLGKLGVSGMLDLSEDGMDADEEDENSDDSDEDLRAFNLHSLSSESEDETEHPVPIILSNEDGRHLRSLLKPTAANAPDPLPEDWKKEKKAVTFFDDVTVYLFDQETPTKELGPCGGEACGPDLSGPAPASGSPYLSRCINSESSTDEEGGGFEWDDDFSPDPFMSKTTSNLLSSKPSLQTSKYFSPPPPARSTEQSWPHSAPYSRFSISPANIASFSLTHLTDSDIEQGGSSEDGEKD
UniProt P07948: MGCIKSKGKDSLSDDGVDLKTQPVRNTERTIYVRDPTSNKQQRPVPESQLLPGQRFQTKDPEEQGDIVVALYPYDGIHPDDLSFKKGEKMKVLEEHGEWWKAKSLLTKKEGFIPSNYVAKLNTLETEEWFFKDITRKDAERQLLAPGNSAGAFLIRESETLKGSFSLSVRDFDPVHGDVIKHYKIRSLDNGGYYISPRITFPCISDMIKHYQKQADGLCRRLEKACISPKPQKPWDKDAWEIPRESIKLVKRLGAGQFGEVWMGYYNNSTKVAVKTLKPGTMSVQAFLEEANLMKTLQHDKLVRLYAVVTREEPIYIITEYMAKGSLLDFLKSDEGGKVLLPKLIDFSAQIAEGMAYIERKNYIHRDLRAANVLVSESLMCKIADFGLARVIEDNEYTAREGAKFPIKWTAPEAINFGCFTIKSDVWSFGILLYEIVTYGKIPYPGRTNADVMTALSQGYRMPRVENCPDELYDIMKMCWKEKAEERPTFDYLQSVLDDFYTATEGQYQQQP
UniProt Q12851: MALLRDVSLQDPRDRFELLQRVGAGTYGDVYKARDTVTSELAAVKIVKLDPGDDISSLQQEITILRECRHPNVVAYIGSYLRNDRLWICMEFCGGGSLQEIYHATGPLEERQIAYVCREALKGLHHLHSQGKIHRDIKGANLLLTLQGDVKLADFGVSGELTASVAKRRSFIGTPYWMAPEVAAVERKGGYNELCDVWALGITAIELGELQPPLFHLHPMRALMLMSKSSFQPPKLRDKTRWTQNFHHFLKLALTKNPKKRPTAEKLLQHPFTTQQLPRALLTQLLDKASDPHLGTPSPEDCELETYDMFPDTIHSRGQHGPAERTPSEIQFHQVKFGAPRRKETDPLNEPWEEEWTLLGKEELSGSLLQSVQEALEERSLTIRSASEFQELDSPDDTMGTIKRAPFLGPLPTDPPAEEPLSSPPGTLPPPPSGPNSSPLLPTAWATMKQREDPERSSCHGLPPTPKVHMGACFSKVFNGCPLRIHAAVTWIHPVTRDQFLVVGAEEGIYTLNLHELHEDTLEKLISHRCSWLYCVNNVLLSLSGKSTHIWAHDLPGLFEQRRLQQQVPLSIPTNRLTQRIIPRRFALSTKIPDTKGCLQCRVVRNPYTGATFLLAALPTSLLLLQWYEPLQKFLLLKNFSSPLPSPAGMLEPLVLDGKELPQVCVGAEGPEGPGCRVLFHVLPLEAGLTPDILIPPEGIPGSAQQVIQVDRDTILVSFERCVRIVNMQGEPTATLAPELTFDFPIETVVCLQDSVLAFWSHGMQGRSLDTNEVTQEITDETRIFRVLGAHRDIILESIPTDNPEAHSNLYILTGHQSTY
UniProt P31152, whole entry: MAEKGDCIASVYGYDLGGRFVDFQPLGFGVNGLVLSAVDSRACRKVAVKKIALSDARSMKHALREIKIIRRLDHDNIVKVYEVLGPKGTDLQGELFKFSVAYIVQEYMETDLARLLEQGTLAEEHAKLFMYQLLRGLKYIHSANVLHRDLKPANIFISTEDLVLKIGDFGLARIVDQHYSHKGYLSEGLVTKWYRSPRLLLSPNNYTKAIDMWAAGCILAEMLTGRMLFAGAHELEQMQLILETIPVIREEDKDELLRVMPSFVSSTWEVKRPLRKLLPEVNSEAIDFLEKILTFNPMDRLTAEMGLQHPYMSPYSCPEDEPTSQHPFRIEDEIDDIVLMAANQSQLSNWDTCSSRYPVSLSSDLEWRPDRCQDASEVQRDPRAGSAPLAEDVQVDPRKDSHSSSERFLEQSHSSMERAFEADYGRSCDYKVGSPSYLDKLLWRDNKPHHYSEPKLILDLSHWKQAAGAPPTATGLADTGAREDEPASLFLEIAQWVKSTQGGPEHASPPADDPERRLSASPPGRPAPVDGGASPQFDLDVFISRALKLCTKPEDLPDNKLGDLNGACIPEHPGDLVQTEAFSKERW
UniProt P49137, whole entry, looked up: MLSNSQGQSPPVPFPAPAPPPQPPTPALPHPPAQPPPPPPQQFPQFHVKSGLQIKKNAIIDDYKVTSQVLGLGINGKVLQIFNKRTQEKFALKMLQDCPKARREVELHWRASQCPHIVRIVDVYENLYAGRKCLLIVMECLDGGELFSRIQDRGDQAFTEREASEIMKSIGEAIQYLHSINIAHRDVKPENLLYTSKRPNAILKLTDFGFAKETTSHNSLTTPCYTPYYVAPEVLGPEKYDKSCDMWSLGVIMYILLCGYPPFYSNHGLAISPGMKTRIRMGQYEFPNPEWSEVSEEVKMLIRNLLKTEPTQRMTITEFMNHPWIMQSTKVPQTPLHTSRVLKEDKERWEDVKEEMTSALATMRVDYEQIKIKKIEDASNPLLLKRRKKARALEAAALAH
UniProt Q9BUB5: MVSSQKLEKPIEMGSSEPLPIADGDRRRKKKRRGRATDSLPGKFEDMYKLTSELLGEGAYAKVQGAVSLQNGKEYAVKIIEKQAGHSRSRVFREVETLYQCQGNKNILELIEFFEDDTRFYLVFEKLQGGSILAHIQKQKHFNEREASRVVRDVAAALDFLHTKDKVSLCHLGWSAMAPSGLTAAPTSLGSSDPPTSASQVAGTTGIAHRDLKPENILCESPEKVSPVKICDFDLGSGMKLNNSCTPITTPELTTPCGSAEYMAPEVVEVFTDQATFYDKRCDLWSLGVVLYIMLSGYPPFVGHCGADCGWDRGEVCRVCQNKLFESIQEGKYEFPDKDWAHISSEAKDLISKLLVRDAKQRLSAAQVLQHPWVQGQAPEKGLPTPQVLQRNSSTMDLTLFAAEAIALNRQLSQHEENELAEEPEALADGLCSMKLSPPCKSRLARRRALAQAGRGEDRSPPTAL
UniProt P42356, whole entry, looked up: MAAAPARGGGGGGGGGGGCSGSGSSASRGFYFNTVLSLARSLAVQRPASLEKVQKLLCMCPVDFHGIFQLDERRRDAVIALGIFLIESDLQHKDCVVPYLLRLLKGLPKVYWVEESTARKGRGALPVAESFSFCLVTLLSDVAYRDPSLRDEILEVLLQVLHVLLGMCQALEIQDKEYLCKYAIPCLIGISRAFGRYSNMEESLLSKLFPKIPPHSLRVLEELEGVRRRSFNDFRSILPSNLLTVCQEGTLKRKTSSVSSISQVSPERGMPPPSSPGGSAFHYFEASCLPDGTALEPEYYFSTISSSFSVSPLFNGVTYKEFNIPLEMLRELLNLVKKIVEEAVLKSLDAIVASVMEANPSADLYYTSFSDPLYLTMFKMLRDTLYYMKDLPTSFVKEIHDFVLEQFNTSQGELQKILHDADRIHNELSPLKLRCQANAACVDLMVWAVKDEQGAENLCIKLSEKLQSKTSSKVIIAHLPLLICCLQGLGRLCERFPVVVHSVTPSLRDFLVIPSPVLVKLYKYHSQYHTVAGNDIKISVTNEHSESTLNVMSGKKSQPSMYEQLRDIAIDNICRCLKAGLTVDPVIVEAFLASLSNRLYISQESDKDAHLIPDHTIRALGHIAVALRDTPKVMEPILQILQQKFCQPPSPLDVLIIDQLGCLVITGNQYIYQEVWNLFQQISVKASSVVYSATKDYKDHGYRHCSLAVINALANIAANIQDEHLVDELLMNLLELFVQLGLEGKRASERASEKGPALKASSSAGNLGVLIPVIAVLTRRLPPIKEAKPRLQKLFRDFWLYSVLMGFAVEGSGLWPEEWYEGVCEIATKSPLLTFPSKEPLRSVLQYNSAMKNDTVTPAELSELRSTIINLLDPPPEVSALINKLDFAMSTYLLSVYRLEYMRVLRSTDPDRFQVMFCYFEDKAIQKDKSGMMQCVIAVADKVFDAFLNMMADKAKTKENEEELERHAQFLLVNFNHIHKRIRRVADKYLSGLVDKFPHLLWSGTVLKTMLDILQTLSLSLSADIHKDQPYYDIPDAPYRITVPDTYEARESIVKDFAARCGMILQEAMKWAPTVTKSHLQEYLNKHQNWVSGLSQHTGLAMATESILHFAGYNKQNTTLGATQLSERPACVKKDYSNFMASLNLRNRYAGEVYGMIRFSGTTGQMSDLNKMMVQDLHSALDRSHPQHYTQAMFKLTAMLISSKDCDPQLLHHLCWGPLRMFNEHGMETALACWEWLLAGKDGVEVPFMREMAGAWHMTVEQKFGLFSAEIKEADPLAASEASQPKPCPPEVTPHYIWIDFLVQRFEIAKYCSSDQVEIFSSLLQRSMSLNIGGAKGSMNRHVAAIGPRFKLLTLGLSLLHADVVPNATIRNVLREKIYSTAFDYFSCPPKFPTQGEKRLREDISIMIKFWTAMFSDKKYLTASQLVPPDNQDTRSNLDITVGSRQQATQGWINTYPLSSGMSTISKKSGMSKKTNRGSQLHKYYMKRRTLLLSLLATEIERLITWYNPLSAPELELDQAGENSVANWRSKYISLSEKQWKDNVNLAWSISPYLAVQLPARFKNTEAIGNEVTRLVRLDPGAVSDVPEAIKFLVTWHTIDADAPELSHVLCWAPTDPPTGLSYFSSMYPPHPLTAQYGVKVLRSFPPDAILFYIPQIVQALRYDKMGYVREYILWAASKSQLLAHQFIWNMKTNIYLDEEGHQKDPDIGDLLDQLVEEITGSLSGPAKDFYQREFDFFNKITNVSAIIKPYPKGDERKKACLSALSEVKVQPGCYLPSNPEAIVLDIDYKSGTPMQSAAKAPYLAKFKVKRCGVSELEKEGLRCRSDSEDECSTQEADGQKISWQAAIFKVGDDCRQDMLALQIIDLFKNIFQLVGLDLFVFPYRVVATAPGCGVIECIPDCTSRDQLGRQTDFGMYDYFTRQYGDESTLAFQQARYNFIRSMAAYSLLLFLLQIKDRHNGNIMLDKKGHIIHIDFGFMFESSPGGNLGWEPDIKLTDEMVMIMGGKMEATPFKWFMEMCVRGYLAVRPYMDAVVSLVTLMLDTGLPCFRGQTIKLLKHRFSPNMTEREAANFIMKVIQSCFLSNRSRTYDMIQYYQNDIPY

What was measured:
Test in all cases: number of time points (of 5) at which kinase-Nluc abundance scored as decreased, DMSO-normalised (count); higher = more persistent destabilization
Conditions in all cases: K562; 2-18 h
LMTK2 = LMTK2 (UniProt Q8IWU2)
LYN = LYN (UniProt P07948)
MAP2K1 = MAP2K1 (UniProt Q02750)
MAP2K2 = MAP2K2 (UniProt P36507)
MAP4K2 = MAP4K2 (UniProt Q12851)
MAPK1 = MAPK1 (UniProt P28482)
MAPK4 = MAPK4 (UniProt P31152)
MAPKAPK2 = MAPKAPK2 (UniProt P49137)
MKNK1 = MKNK1 (UniProt Q9BUB5)
NTRK2 = NTRK2 (UniProt Q16620)
NTRK3 = NTRK3 (UniProt Q16288)
PAK4 = PAK4 (UniProt O96013)
PBK = PBK (UniProt Q96KB5)
PDGFRB = PDGFRB (UniProt P09619)
PDK1 = PDK1 (UniProt Q15118)
PDPK1 = PDPK1 (UniProt O15530)
PIK4CA = PIK4CA (UniProt P42356)
PIK4CB = PIK4CB (UniProt Q9UBF8)
PLK1 = PLK1 (UniProt P53350)
PRKAA1 = PRKAA1 (UniProt Q13131)

Measured: number of time points

CCc1cncnc1N1CCN(Cc2nc3ccc(C(F)(F)F)cc3[nH]2)CC1 (10 µM)
0: all assays above

C=CC(=O)N1C[C@H](COc2nc(Nc3cnn(C)c3)nc3[nH]cc(Cl)c23)[C@@H](OC)C1 (2.5 µM)
0: all assays above

O=c1[nH]c(C2CCCN2)nc2c1oc1ccc(Cl)cc12 (stereo not given) [XL413 (hydrochloride)] (10 µM)
0: all assays above

O=C(Nc1cccc(Nc2ncc(Br)c(NCCc3cnc[nH]3)n2)c1)N1CCCC1 (10 µM)
2: PIK4CA
3: PDGFRB | PRKAA1
4: PDPK1
0: all other assays above

C=CC(=O)Nc1cc(Nc2nccc(-n3cc(CN(C)C)c(-c4ccccc4)n3)n2)c(OC)cc1N1CCOCC1 [Lazertinib] (10 µM)
0: all assays above

Nc1ncnc2c1c(COc1cccc(Cl)c1)nn2C1CCOCC1 (10 µM)
0: all assays above

CNC(=O)c1cc2c(Oc3ccc(NC(=S)NC(=O)Cc4ccccc4)cc3F)ccnc2cc1OC [TAS-115 mesylate] (10 µM)
3: MKNK1 | PIK4CA | PIK4CB | PLK1
2: LMTK2 | MAPK1 | MAPKAPK2
4: PDPK1
1: PRKAA1
0: all other assays above

CNc1nc(Nc2cn(C(C)(C)C#N)nc2C)ncc1C(F)(F)F (10 µM)
0: all assays above

C=C[C@@](C)(/C=C/c1ccc(O)cc1)CCC=C(C)C [Bakuchiol] (10 µM)
0: all assays above

NC(=O)c1cnc2[nH]ccc2c1N[C@@H]1[C@@H]2CC3C[C@H]1C[C@@](O)(C3)C2 [Peficitinib] (10 µM)
1: PDPK1
3: LMTK2 | MKNK1
2: PIK4CB
0: all other assays above

COc1cc(N2CCOCC2)ccc1NC(=O)c1csc(-c2cccnc2)n1 [IRAK inhibitor 6] (10 µM)
0: all assays above

c1ccc(-c2nc(=NCCN3CCOCC3)sn2-c2ccccc2)cc1 [VP3.15 (dihydrobromide)] (10 µM)
0: all assays above

Cc1ccc(Oc2nc3cc(-c4ccc(-c5ccccc5)cc4)c(Cl)cc3[nH]2)cc1C(=O)O (10 µM)
1: PLK1
0: all other assays above

COc1ccc(-c2c(C)nn3c(NCCN4CCOCC4)cc(C)nc23)cc1OC (10 µM)
0: all assays above

O=C(Nc1nc2ccc(NC(=O)C34CC5CC(CC(C5)C3)C4)cc2s1)c1ccccc1 (10 µM)
1: LYN | MKNK1
0: all other assays above

c1ccc(-c2nc3c(c(-n4ccc5cnccc54)n2)CCC3)nc1 (10 µM)
0: all assays above

CC(C)c1cc(/C=C(\C#N)C(=O)NCCCc2ccccc2)cc(C(C)C)c1O (10 µM)
0: all assays above

C[C@H](Nc1ncnc2[nH]cnc12)c1cc2ccc(F)cc2nc1-c1ccccn1 (10 µM)
0: all assays above

COc1cc2ncnc(Nc3ccccc3)c2cc1OC (10 µM)
0: all assays above

Fetched by structure from the list above, 2 records:
Cc1ccc(Oc2nc3cc(-c4ccc(-c5ccccc5)cc4)c(Cl)cc3[nH]2)cc1C(=O)O (10 µM)
1: PLK1
0: all other assays above

COc1ccc(-c2c(C)nn3c(NCCN4CCOCC4)cc(C)nc23)cc1OC (10 µM)
0: all assays above

Following part.

CCc1cccc(CC)c1NC(=O)N1Cc2[nH]nc(NC(=O)c3ccc(N4CCN(C)CC4)cc3)c2C1 (2.5 µM)
1: MKNK1 | NTRK2
4: PDPK1
2: NTRK3 | PDGFRB | PIK4CA | PIK4CB | PRKAA1
0: all other assays above

Cn1cc(C2=C(c3cn(CCCSC(=N)N)c4ccccc34)C(=O)NC2=O)c2ccccc21 [Ro 31-8220 (mesylate)] (2.5 µM)
3: LMTK2
2: PDPK1 | PIK4CA
0: all other assays above

Cc1cnc(-c2ccc(-c3ccc(NC(=O)Nc4cccc(C(F)(F)F)c4)cc3F)c3c2C(=O)NC3)[nH]1 (10 µM)
1: LYN | MKNK1
2: PIK4CB
4: PDGFRB
0: all other assays above

O=C1NC(=O)C(c2cnc3ccccn23)=C1c1cn2c3c(cc(F)cc13)CNCC2 [GSK-3 inhibitor 1] (2.5 µM)
3: LMTK2
0: all other assays above

C[C@@H]1O[C@@H](O[C@@H]2[C@@H](O)[C@H](OCCc3ccc(O)c(O)c3)O[C@H](CO)[C@H]2OC(=O)/C=C/c2ccc(O)c(O)c2)[C@H](O)[C@H](O)[C@H]1O [Verbascoside] (10 µM)
0: all assays above
